Reference: PMC7813835, “Structure of SRSF1 RRM1 bound to RNA reveals an unexpected bimodal mode of interaction and explains its involvement in SMN1 exon7 splicing”

By UniProt entry, the sequences of proteins in these tests, tags left out. Residues count along the entry.
UniProt Q07955, 1-97 F56A: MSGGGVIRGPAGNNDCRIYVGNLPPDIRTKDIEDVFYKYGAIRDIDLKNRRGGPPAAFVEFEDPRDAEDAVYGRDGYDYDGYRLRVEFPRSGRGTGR
UniProt Q07955, 1-97 Y19A: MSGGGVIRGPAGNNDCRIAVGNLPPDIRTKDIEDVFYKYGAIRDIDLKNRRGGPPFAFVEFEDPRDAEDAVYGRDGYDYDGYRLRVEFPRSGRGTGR
UniProt Q07955, 1-97 F58A: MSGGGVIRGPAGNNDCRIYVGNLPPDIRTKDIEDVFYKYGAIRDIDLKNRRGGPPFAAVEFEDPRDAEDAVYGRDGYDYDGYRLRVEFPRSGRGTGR
UniProt Q07955, 1-97 R17A: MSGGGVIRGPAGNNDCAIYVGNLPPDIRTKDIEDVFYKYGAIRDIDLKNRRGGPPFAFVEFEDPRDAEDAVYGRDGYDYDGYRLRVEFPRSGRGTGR
UniProt Q07955, 1-97 K48A: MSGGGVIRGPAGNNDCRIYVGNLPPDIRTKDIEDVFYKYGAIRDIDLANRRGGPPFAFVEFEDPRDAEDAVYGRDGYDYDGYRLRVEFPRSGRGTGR

What was measured:
Assay in all cases: NMR
SRSF1 RRM1 F56A (human) = SRSF1 RRM1 F56A (human) (UniProt Q07955); conditions: no perturbation, text says RNA, legend ssDNA; NMR buffer: 50 mM L-Glu, 50 mM L-Arg, 0.05% beta-mercaptoethanol, 20 mM Na2HPO4 pH 7 (RRM1+2: plus 150 mM KCl, 1.5 mM MgCl2, 0.2 mM EDTA); NMR and ITC at 40 C; recombinant protein; residues 1-97; protein details: N-terminal GB1-6xHis; single-stranded DNA
SRSF1 RRM1 Y19A (human) = SRSF1 RRM1 Y19A (human) (UniProt Q07955); conditions: no perturbation, text says RNA, legend ssDNA; NMR buffer: 50 mM L-Glu, 50 mM L-Arg, 0.05% beta-mercaptoethanol, 20 mM Na2HPO4 pH 7 (RRM1+2: plus 150 mM KCl, 1.5 mM MgCl2, 0.2 mM EDTA); NMR and ITC at 40 C; recombinant protein; residues 1-97; protein details: N-terminal GB1-6xHis; single-stranded DNA
SRSF1 RRM1 F58A (human) = SRSF1 RRM1 F58A (human) (UniProt Q07955); conditions: no perturbation, text says RNA, legend ssDNA; NMR buffer: 50 mM L-Glu, 50 mM L-Arg, 0.05% beta-mercaptoethanol, 20 mM Na2HPO4 pH 7 (RRM1+2: plus 150 mM KCl, 1.5 mM MgCl2, 0.2 mM EDTA); NMR and ITC at 40 C; recombinant protein; residues 1-97; protein details: N-terminal GB1-6xHis; single-stranded DNA
SRSF1 RRM1 R17A (human) = SRSF1 RRM1 R17A (human) (UniProt Q07955); conditions: text says RNA, legend ssDNA; NMR buffer: 50 mM L-Glu, 50 mM L-Arg, 0.05% beta-mercaptoethanol, 20 mM Na2HPO4 pH 7 (RRM1+2: plus 150 mM KCl, 1.5 mM MgCl2, 0.2 mM EDTA); NMR and ITC at 40 C; recombinant protein; residues 1-97; protein details: N-terminal GB1-6xHis; single-stranded DNA
SRSF1 RRM1 K48A (human) = SRSF1 RRM1 K48A (human) (UniProt Q07955); conditions: text says RNA, legend ssDNA; NMR buffer: 50 mM L-Glu, 50 mM L-Arg, 0.05% beta-mercaptoethanol, 20 mM Na2HPO4 pH 7 (RRM1+2: plus 150 mM KCl, 1.5 mM MgCl2, 0.2 mM EDTA); NMR and ITC at 40 C; recombinant protein; residues 1-97; protein details: N-terminal GB1-6xHis; single-stranded DNA

AACAAA [AACAAA ssDNA]: no binding (SRSF1 RRM1 F56A (human)); no binding (SRSF1 RRM1 Y19A (human)); no binding (SRSF1 RRM1 F58A (human)). AACAAA [AACAAA ssDNA]: binds more weakly (SRSF1 RRM1 R17A (human)); binds more weakly (SRSF1 RRM1 K48A (human)).

For some assays here: No signal at the amounts used counts as a negative. At least one verdict was read from the data and is not stated in words by the source. For some assays here: The exact form of at least one protein or probe is not confirmed. For some assays here: A weaker result is weaker than the reference pair of the same experiment.
